Patent US11963939B2, “Use of N-acetylcysteine to treat central nervous system disorders” (Neuronasal, Inc., priority 2017, dated 2024)
At least one compound was matched to its structure with a doubt left.

Test system: primary cortical neurons
Type: cell-based, mouse
Conditions: 100 μM hemin, MTT
Description: Primary cortical neuronal cultures: Primary cortical neurons were collected from embryonic (E15) CD1 mice. The cortices of the mice were dissected, homogenized, and plated in minimum essential medium containing 10% fetal bovine serum (FBS), 5% horse serum, and 1% penicillin/streptomycin in 96-well plates, 6-well plates, or 10-cm dishes. The neurons were maintained at 37° C. with 5% CO2. All experiments were conducted 24 hours after plating.
In vitro ICH model: Ferroptosis is a type of programmed cell death that is dependent on iron, and is characterized by the accumulation of lipid peroxides. Ferroptosis is genetically and biochemically distinct from other forms of regulated cell death such as apoptosis. […]
Cell death was induced in primary cortical neurons by treating the neurons with hemin, a blood breakdown product. […] Cell viability was analyzed 24 h after treatment. The cells were rinsed with warm phosphate-buffered saline (PBS) and assessed using an MTT assay. […]
The ability of NAC to protect cells was investigated in a hemin model of hemorrhagic stroke. […] Treatment of primary cortical neurons with 100 μM hemin induced widespread cell death through a ferroptotic mechanism, which was quantified with MTT and qualitatively observed using live/dead staining. […]

For `Cc1ccc(-c2cc(C(F)(F)F)nn2-c2ccc(S(N)(=O)=O)cc2)cc1` [Celecoxib], the “Protection against hemin-induced toxicity (in words)” value was “failed to protect against hemin toxicity”.
